Results reported in US7375243B2, “Method for preparation of amino acid chelate” (MD Bioalpha Co., Ltd., priority 2002, dated 2008).

Assay: Test of properties (taste and appearance) of beverage with chelate added
Conditions: chelate added to MIEROFIBER at 1% by weight; aggregate of ten specialists, each 1-5

Seaweed Calcium-Glutamic Acid Chelate [EXAMPLE 1]
Appearance: Clearness (aggregate value): 47 | Appearance: Color (aggregate value): 48 | Overall evaluation (aggregate value): 47 | Taste: Glutamate taste (aggregate value): 12 | Taste: Sour taste (aggregate value): 11
